Data on 1 molecule can be found in PubChem BioAssay AID2283145 (EPA ToxCast).

By UniProt entry, the sequences of proteins in these tests, tags left out.
UniProt Q00534, whole entry, looked up: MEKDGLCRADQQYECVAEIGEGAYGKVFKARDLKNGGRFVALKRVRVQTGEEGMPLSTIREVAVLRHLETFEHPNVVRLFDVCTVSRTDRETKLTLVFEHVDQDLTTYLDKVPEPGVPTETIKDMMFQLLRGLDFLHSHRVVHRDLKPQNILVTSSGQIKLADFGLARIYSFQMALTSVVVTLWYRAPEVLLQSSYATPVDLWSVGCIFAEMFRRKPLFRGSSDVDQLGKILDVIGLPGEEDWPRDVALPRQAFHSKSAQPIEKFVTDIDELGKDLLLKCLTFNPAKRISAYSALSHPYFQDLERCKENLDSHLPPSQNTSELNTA

The list shows a part of the results, in another mix than the full data. Records with an inconclusive call do not appear. Calls of active or inactive are those of the source. The calls were made as follows: active = hit-call score of the fitted dose curve at least 0.9, where 1 is the maximum; inconclusive = response in the unintended direction; inactive = score below 0.9.

For the assay, the target named is human Cyclin-Dependent Kinase 6 (CDK6), CDK6 (gene 1021) (UniProt Q00534). Kind of assay: NVS_ENZ_hCDK6: NovaScreen (NVS) Enzymatic Assay for human Cyclin-Dependent Kinase 6 (CDK6). As to the method:
NVS_ENZ_hCDK6 is a biochemical, single-readout assay that uses extracted gene-proteins in a cell-free assay. Measurements were taken 1 hour after chemical dosing in a 384-well plate.NVS_ENZ_hCDK6 is one of one assay component(s) measured or calculated from the NVS_ENZ_hCDK6 assay. It is designed to make measurements of enzyme activity, a form of enzyme reporter, as detected with fluorescence intensity signals by Fluorescence and electrophoretic mobility shift technology.Data from the assay component NVS_ENZ_hCDK6 was analyzed into 1 assay endpoint. This assay endpoint, NVS_ENZ_hCDK6, was analyzed in the positive analysis fitting direction relative to DMSO as the negative control and baseline of activity. Using a type of enzyme reporter, loss-of-signal activity can be used to understand changes in the enzymatic activity as they relate to the gene CDK6. Furthermore, this assay endpoint can be referred to as a primary readout, because this assay has produced multiple assay endpoints where this one serves a enzymatic activity function. To generalize the intended target to other relatable targets, this assay endpoint is annotated to the kinase intended target family, where the subfamily is serine/threonine kinase. […]
One may read the AC50 as the midpoint of the concentration-response curve, whichever way the signal moves. For `O=S(=O)(O)C(F)(F)C(F)(F)C(F)(F)C(F)(F)C(F)(F)C(F)(F)C(F)(F)C(F)(F)F`, the half-maximal activity concentration (AC50) is active: 18 µM.
